# Reference: patent US20260115250A1, “METHODS OF TREATING AGE-RELATED MACULAR DEGENERATION” (Character Biosciences, Inc., priority 2022, published 2026)
# No constants are given. Whether binding was seen depends on the method and setting. Some entries that bind do so weakly or less than the wild type.
# Target: Low Density Lipoprotein Receptor (LDLR), recombinant (UniProt P01130)
# Assay: SPR, LDLR immobilized on CM5 chip, 1 µM peptide with or without 25 µM DMPC
row,Binder,binding
1,EELRVRLASHLRKLRKRLLRDADDLQKRLAVYQA [T-007],binds
2,EELRVRLASHLRKLRKRLLRDADDLQKRLAVYQAGAREGAERGLSAIRER [T-009],binds
3,T-013 (peptide) peptide: TRARLSKELQAAQARLGADMEDVRGRLVQYRGEVQAMLGQSTEELRVRLASHLRKLRKRLLRDADDLQKRLAVYQA,binds

# Next, values leading:
row,binding,Binder
1,binds,HLRKLRKRLLRDGDKLCDRLAEYCARAKEAFDR [T-029]
2,binds,HLRKLRKRLLRPPEQAQQIRLQAEAFQARLKSWFE [T-018]
